We go through one substance from article doi:10.1101/2025.08.18.670856.

Chains of the proteins cited; added tags and fusions are not shown.
UniProt Q16665: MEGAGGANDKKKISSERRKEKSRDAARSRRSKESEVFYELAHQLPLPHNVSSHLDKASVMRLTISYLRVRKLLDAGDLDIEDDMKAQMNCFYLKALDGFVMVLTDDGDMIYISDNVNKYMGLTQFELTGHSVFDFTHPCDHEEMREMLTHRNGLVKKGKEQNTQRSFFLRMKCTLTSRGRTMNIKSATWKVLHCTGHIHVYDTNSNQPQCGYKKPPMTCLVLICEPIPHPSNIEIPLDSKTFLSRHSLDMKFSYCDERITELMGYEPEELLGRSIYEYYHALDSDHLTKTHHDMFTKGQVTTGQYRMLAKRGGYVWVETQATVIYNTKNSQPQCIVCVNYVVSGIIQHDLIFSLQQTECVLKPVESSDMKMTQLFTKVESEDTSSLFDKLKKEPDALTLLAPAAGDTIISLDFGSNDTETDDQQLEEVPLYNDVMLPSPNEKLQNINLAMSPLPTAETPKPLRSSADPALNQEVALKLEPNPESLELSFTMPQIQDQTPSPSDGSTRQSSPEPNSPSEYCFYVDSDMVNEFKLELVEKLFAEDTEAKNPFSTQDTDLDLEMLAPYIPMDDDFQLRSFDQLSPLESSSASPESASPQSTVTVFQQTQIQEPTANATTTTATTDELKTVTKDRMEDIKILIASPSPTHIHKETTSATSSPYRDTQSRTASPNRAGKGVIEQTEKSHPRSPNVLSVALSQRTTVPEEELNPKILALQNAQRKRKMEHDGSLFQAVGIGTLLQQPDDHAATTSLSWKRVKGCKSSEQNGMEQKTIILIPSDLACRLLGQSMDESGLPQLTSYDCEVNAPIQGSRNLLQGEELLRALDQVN

The experiment concerns the target T1, FetA-HIS (wild type, from the plasmid AHSG-bio-His) (human) (UniProt P02765).
T1 sequence: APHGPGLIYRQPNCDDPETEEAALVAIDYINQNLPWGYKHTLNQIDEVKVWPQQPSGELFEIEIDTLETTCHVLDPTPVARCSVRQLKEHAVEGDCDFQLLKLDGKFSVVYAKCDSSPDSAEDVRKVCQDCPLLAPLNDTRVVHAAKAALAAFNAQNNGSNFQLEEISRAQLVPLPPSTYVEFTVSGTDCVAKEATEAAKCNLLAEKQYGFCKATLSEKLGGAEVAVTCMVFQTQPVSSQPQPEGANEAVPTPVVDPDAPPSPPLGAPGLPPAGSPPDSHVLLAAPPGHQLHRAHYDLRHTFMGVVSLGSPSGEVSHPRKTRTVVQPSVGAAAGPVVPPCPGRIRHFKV
Nature of the experiment: co-IP.

Results are given in words; binding and its absence hold for the method and conditions named. Binding seen in cells or lysates may run through a third protein. Some entries that bind do so weakly or less than the wild type. Tags and fused reporters may be left off the sequences shown.

As for “HIF-1α-HA (from the plasmid HA-HIF1alpha-pcDNA3), in HEK293 nuclear lysate (from UniProt Q16665 1-826)”, the binding result was “binds”.
